According to patent EP0076973A1, “A new dioxolanic compound and its method of preparation; a new dioxolanic amine with pharmacological activity, its method of preparation, and the pharmaceutical compositions containing them” (Investigacion Tecnica y Aplicada, S.A., priority 1981, dated 1983):

Key:
male NMRI mouse = test: Anti-arrythmic activity: fibrillation by chloroform in the mouse; format: in vivo
Text: Tables 5 and 6 show the anti-arrithmic activity of the ITA 362 in the male NMRI mouse by oral and intraperitoneal route using the fibrillation test by chloroform in the mouse. […] The activity of the two forms of maleate described in the example 2 were studied and which in the table are subtitled as isomer A corresponding to the first fraction obtained in the aforementioned example, and isomer B corresponding to the second fraction.

[1] = Acute toxicity (LD50, method of Litchfield and Wilcoxon) in the mouse; conditions: in vivo
Protocol: (§1) The respective lethal dose 50 was calculated according to the method of Litchfield and Wilcoxon (Jl. Pharmacol. Exptl. 96 99, 1949 ).

[2] = Acute toxicity (LD50, method of Litchfield and Wilcoxon) in the rat; conditions: in vivo, ip, intraperitoneal administration, read-out: LD50 and confidence limits
Protocol: as §1

In the case of CCCCc1oc2ccccc2c1C(=O)c1cc(I)c(OCCN(CC)CC)c(I)c1 [Amiodarona, reference compound], the ED50 (male NMRI mouse; Mus musculus, ip, no unit given for ED50 (doses in mg/kg), read-out: ED50 and confidence limits p < 0,05) is reported as 34 mg/kg, the “% protection versus fibrillation” value (male NMRI mouse; i.p. 25 mg/kg) is reported as 45% and the “% protection versus fibrillation” value (male NMRI mouse; i.p. 50 mg/kg) is reported as 52,6%. It also gave an LD50 ([1]; ip, intraperitoneal administration, read-out: LD50 and confidence limits) of 940 mg/kg, an LD50 ([1]; oral administration, read-out: LD50) greater than 4000 mg/kg and an LD50 [2] of 885 mg/kg.
